# The list is a part of this screen's results and no random one: it is rich in T/C values a quarter to a half above the control, in often repeated tests (any T/C) and in doses without a T/C. Other doses and runs of a compound stand elsewhere. T/C gives the treated animals as a percentage of the vehicle group. Some doses have a count of surviving animals in place of a T/C: the source holds a T/C of zero for them, seemingly a mark for toxic or unscored doses. Some survivor counts are full or nearly so, which does not show that the dose was tolerated: the source hardly ever lists a survival T/C far under the control, and the zero likely stands for such cases as well. Counts of survivors are from the toxicity check (mostly the fifth day) where no day follows; animals may have died later. Schedules are NCI's codes, taken here to give the interval after Q, in days (D) or hours (H), and the number of doses after X. Some structures stand for samples that the source files as different forms (salt, stereo form or complex); doses refer to the form tested. For survival time, this PubChem deposit counts one and a half times the control or more as active, and values a quarter to a half above the control carry no call in these data; other NCI protocols may use other cut-offs. Some T/C values are followed by the survivors on the day toxicity was checked, most often the fifth; without a count, all were alive then.
# Tested on: BDF1 mice, P388 leukemia ip, median survival T/C
# Assay: NCI In Vivo Anticancer Drug Screen. Data for tumor model P388 Leukemia (intraperitoneal) in B6D2F1 (BDF1) mice
# Settings: T/C endpoint: median survival time, higher T/C = longer survival
# How it was run: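 Steps: implant the tumour, treat one group with compound and another with vehicle, record survival, then divide treated by control.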
# [1] = dose: 400.0 mg/kg/injection, schedule: Q01DX010 (ip), vehicle: water
# [2] = dose: 200.0 mg/kg/injection, schedule: Q01DX009 (ip), vehicle: Klucel (hydroxypropylcellulose) (HPC)
# [3] = dose: 12.5 mg/kg/injection, schedule: Q01DX009 (ip), vehicle: saline
# [4] = dose: 50.0 mg/kg/injection, schedule: Q01DX009 (ip), vehicle: saline with Tween-80
# [5] = dose: 335.0 mg/kg/injection, schedule: Q01DX009 (ip), vehicle: Klucel (hydroxypropylcellulose) (HPC)
# [6] = dose: 20.0 mg/kg/injection, schedule: Q01DX009 (ip), vehicle: water
# [7] = dose: 25.0 mg/kg/injection, schedule: Q01DX009 (ip), vehicle: Klucel (hydroxypropylcellulose) (HPC)
# [8] = dose: 50.0 mg/kg/injection, schedule: Q01DX009 (ip), vehicle: Klucel (hydroxypropylcellulose) (HPC)
# [9] = dose: 200.0 mg/kg/injection, schedule: Q01DX005 (ip), vehicle: saline with Tween-80
structure (smiles),measurement,setting,value
CCOC(=O)C(=O)CC1=CC=CC2=NC(=O)CCN12,T/C,"dose: 100.0 mg/kg/injection, schedule: Q01DX001 (ip), vehicle: saline with Tween-80",131 % of control
same,survivor count,"dose: 400.0 mg/kg/injection, schedule: Q01DX001 (ip), vehicle: saline with Tween-80",2 of 6
CO[C@@H]1[C@@H](OC2OC(C)C(OC3CC(C)(O)C(OC(=O)CC(C)C)C(C)O3)C(N(C)C)C2O)[C@@H](CC=O)C[C@@H](C)C(=O)/C=C/C2O[C@H]2C[C@@H](C)OC(=O)C[C@H]1OC(C)=O (stereo partly drawn),T/C,"dose: 300.0 mg/kg/injection, schedule: Q01DX010 (ip), vehicle: water",136 % of control
same,T/C,[1],136 % of control
same,survivor count,[1],2 of 6
same,survivor count,"dose: 600.0 mg/kg/injection, schedule: Q01DX010 (ip), vehicle: water",0 of 6
NC(C/[N+]([O-])=N/O)C(=O)O (stereo not drawn),T/C,"dose: 31.3 mg/kg/injection, schedule: Q04DX003 (ip), vehicle: water",136 % of control
same,T/C,"dose: 50.0 mg/kg/injection, schedule: Q01DX010 (ip), vehicle: saline",127 % of control [5 of 6 alive]
same,T/C,"dose: 62.5 mg/kg/injection, schedule: Q04DX003 (ip), vehicle: saline",127 % of control
same,T/C,"dose: 62.5 mg/kg/injection, schedule: Q04DX003 (ip), vehicle: water",136 % of control
same,T/C,"dose: 100.0 mg/kg/injection, schedule: Q01DX010 (ip), vehicle: saline",138 % of control
same,T/C,"dose: 125.0 mg/kg/injection, schedule: Q04DX003 (ip), vehicle: saline",140 % of control
same,survivor count,"dose: 200.0 mg/kg/injection, schedule: Q01DX010 (ip), vehicle: other",6 of 6
same,survivor count,"dose: 400.0 mg/kg/injection, schedule: Q01DX010 (ip), vehicle: saline",6 of 6
same,survivor count,"dose: 800.0 mg/kg/injection, schedule: Q04DX003 (ip), vehicle: sodium bicarbonate",8 of 8
Nc1ccc(C(=O)O)cc1S(=O)(=O)c1cc(C(=O)O)ccc1N,survivor count,[2],6 of 6
c1ccc2c(c1)[nH]c1c2c[n+]2c3c(cccc13)CCC2,T/C,[3],133 % of control
O=C(O)CCCl,survivor count,"dose: 400.0 mg/kg/injection, schedule: Q01DX009 (ip), vehicle: saline",0 of 6
Cc1c(N)cccc1N,survivor count,[4],0 of 6
CC(CN1CC(=O)NC(=O)C1)N1CC(=O)NC(=O)C1.[Cl-].[Pt+4] (stereo not drawn),T/C,"dose: 50.0 mg/kg/injection, schedule: Q01DX009 (ip), vehicle: saline",129 % of control
same,T/C,"dose: 100.0 mg/kg/injection, schedule: Q01DX009 (ip), vehicle: saline",148 % of control
same,T/C,"dose: 200.0 mg/kg/injection, schedule: Q01DX009 (ip), vehicle: saline",141 % of control
S=C(NNC(=S)Nc1ccc(Cl)cc1)NNc1ccccc1,survivor count,"dose: 225.0 mg/kg/injection, schedule: Q01DX009 (ip), vehicle: Klucel (hydroxypropylcellulose) (HPC)",3 of 6
same,T/C,[5],130 % of control
same,survivor count,[5],3 of 6
COc1cccc2c1C(=O)c1c(O)c3c(c(O)c1C2=O)C[C@@](O)(C(=O)COC(=O)c1cccnc1)C[C@@H]3OC1CC(N)C(O)C(C)O1 (stereo partly drawn),T/C,"dose: 3.0 mg/kg/injection, schedule: Q01DX009 (ip), vehicle: saline",125 % of control
COc1cc2c3c(c4ccc(O)cc4c2cc1OC)[C@@H](O)[C@@H]1CCCN1C3,T/C,"dose: 10.0 mg/kg/injection, schedule: Q01DX009 (ip), vehicle: water",130 % of control
same,T/C,"dose: 15.0 mg/kg/injection, schedule: Q01DX009 (ip), vehicle: water",138 % of control
same,T/C,[6],146 % of control
same,survivor count,"dose: 20.0 mg/kg/injection, schedule: Q01DX010 (ip), vehicle: water",5 of 6
same,survivor count,"dose: 25.0 mg/kg/injection, schedule: Q01DX010 (ip), vehicle: water",5 of 6
same,survivor count,"dose: 30.0 mg/kg/injection, schedule: Q01DX010 (ip), vehicle: water",5 of 6
same,survivor count,"dose: 35.0 mg/kg/injection, schedule: Q01DX010 (ip), vehicle: water",3 of 6
CC(=O)[O][Hg][c]1c(C)c(C)c(C)c(C)c1C,survivor count,[7],6 of 6
same,survivor count,[8],2 of 6
N/C(=N\OC(=O)NC(Cl)=C(Cl)Cl)c1ccc(Cl)cc1,survivor count,[9],2 of 5
Cc1ccccc1NC(=O)Nc1ccccc1C,survivor count,"dose: 1.5 mg/kg/injection, schedule: Q01DX009 (ip), vehicle: Klucel (hydroxypropylcellulose) (HPC)",6 of 6
same,survivor count,"dose: 3.0 mg/kg/injection, schedule: Q01DX009 (ip), vehicle: Klucel (hydroxypropylcellulose) (HPC)",6 of 6
same,survivor count,"dose: 6.0 mg/kg/injection, schedule: Q01DX009 (ip), vehicle: Klucel (hydroxypropylcellulose) (HPC)",6 of 6
same,survivor count,"dose: 12.5 mg/kg/injection, schedule: Q01DX009 (ip), vehicle: Klucel (hydroxypropylcellulose) (HPC)",6 of 6
same,survivor count,[7],6 of 6
same,survivor count,[8],6 of 6
same,survivor count,"dose: 100.0 mg/kg/injection, schedule: Q01DX009 (ip), vehicle: Klucel (hydroxypropylcellulose) (HPC)",6 of 6
same,survivor count,[2],6 of 6
same,survivor count,"dose: 400.0 mg/kg/injection, schedule: Q01DX009 (ip), vehicle: Klucel (hydroxypropylcellulose) (HPC)",6 of 6
COC(=O)C(CSCSCc1ccccc1)NC(=O)C(CSCc1ccccc1)NC(=O)CCNC(=O)OCc1ccccc1 (stereo not drawn),T/C,"dose: 6.25 mg/kg/injection, schedule: Q04DX003 (ip), vehicle: Klucel (hydroxypropylcellulose) (HPC)",138 % of control
COC(=O)CCc1c[nH]c2ccc(N(CCCl)CCCl)cc12,T/C,"dose: 0.06 mg/kg/injection, schedule: Q01DX009 (ip), vehicle: saline with Tween-80",127 % of control
same,T/C,"dose: 0.06 mg/kg/injection, schedule: Q04DX003 (ip), vehicle: saline with Tween-80",140 % of control
same,T/C,"dose: 0.12 mg/kg/injection, schedule: Q04DX003 (ip), vehicle: saline with Tween-80",145 % of control
same,T/C,"dose: 0.5 mg/kg/injection, schedule: Q01DX009 (ip), vehicle: saline with Tween-80",144 % of control
same,T/C,"dose: 2.5 mg/kg/injection, schedule: Q04DX003 (ip), vehicle: saline with Tween-80",131 % of control
same,survivor count,"dose: 5.0 mg/kg/injection, schedule: Q01DX009 (ip), vehicle: saline with Tween-80",6 of 6
same,survivor count,"dose: 10.0 mg/kg/injection, schedule: Q01DX009 (ip), vehicle: saline with Tween-80",6 of 6
same,T/C,"dose: 10.0 mg/kg/injection, schedule: Q04DX003 (ip), vehicle: saline with Tween-80",145 % of control
same,survivor count,"dose: 20.0 mg/kg/injection, schedule: Q01DX009 (ip), vehicle: saline with Tween-80",6 of 6
same,survivor count,"dose: 40.0 mg/kg/injection, schedule: Q01DX009 (ip), vehicle: saline with Tween-80",5 of 6
CC(=O)OC12CC[N+]3(C)CCCCC3C1=Nc1ccccc12 (stereo not drawn),survivor count,[4],0 of 6
same,survivor count,"dose: 100.0 mg/kg/injection, schedule: Q01DX009 (ip), vehicle: saline with Tween-80",0 of 6
same,survivor count,"dose: 200.0 mg/kg/injection, schedule: Q01DX009 (ip), vehicle: saline with Tween-80",0 of 6
C[n+]1ccc(Nc2ccc(NC(=O)c3ccc(Nc4cc[n+](C)c5ccc(N)cc45)cc3)cc2)cc1,T/C,"dose: 0.5 mg/kg/injection, schedule: Q01DX009 (ip), vehicle: Klucel (hydroxypropylcellulose) (HPC)",144 % of control
same,T/C,"dose: 1.0 mg/kg/injection, schedule: Q01DX009 (ip), vehicle: Klucel (hydroxypropylcellulose) (HPC)",133 % of control
same,survivor count,"dose: 12.0 mg/kg/injection, schedule: Q01DX009 (ip), vehicle: water",3 of 8
same,survivor count,[6],1 of 8
[CH3][Sn]([CH3])([Cl])[S]CCN,T/C,"dose: 3.12 mg/kg/injection, schedule: Q01DX009 (ip), vehicle: saline",137 % of control
same,T/C,[3],127 % of control
O=C(Nc1cccc(O)c1)C(Cl)=C(Cl)Cl,survivor count,"dose: 50.0 mg/kg/injection, schedule: Q01DX005 (ip), vehicle: saline with Tween-80",3 of 5
same,survivor count,"dose: 100.0 mg/kg/injection, schedule: Q01DX005 (ip), vehicle: saline with Tween-80",1 of 5
same,survivor count,[9],1 of 5

# From PubChem BioAssay AID328 (DTP/NCI, 2004)
